Laboratory results: PMC3245299
These are yes or no findings as the source states them, for the method shown. Binding seen in cells or lysates may run through a third protein. Here binding means that the protein was enriched with, or labelled near, the bait; the list need not be complete. No binding means not detected with the bait.

Protein sequences, listed by entry. Tags and fused reporters are not part of them. Lines headed by an entry give the natural chain unless they say otherwise; changes in a name come on top. Chains listed by the source or under a name are the forms on record and can include a tag or linker. Residues count along the entry.
UniProt P0C6J7, residues 229-262: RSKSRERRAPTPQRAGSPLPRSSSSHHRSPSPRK
UniProt P06748: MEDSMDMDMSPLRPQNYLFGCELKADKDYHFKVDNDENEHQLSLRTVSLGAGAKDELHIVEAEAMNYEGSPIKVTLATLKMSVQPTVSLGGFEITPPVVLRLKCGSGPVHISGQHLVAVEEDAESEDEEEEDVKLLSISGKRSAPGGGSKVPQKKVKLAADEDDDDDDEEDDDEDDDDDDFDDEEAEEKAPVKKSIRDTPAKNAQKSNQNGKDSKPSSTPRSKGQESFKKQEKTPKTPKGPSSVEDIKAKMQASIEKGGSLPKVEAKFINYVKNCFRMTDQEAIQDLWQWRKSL
I2PP2A (SET, Taf-1β), endogenous in HEK293T cells (Q01105-2, form named): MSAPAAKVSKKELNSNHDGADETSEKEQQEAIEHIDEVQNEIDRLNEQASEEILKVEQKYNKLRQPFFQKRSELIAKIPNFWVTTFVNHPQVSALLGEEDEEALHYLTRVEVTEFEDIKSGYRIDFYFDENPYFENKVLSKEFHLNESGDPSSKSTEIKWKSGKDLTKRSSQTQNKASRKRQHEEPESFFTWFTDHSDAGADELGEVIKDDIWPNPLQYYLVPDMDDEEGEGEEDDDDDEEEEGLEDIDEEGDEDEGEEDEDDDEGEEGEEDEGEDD

Biological target: GST-DCC229 (GST fused to DHBc CTD residues 229-262, WT), expressed in HEK293T (duck hepatitis B virus (DHBV)) (UniProt P0C6J7)
Experiment: affinity purification with mass spectrometry; GST-DCC fusion proteins expressed in HEK293T, purified from RNase A-treated lysates on GSH affinity resin; co-purifying bands seen by Coomassie staining, excised, trypsinised in gel and identified by mass spectrometry (Fig. 4)

| Substance | binding |
| --- | --- |
| B23 (nucleophosmin, NPM1), endogenous in HEK293T cells (from UniProt P06748 1-294) | no binding |
| I2PP2A (SET, Taf-1β), endogenous in HEK293T cells (from UniProt Q01105-2 1-277) | no binding |
